The assay has as its target T1, human IL-6 (human, UniProt P05231 30-212).
T1 construct: recombinant, bought (Peprotech 200-06; R&D Systems 206-IL/CF); biotinylated in the ELISAs; also called hIL-6; rhIL-6
Put plainly: ELISA, captured Z-ABD, biotin-hIL-6 titrated. A general note: An ELISA detects its analyte on a solid surface through an enzyme-linked reagent.

By UniProt entry, the sequences of proteins in these tests, tags left out. Residues count along the entry.
UniProt P05231, 30-212 limits assumed: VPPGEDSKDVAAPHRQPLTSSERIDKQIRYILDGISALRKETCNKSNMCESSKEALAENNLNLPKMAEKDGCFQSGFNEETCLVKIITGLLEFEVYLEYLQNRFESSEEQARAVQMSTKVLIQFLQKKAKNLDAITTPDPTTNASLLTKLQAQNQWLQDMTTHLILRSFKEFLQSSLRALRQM

B1: Z11433 (designed binder)
chain: AQHDEALEVDAKYAKEERKAWYEIHLLPNLTVDQMAAFISKLFDDPSQSSELLSEAKKLNDSQAPKVDYVLAEAKVLANRELDKYGVSDYYKNLINNAKTVEGVKALIDEILAALPYVPG
notes: domain: GA3; periplasmic ABD fusion
For orientation: EC50 means the concentration giving half of the maximal effect. Read a high EC50 as a less potent agent. B1 showed a concentration for a half-maximal effect (EC50) of 0.21 nM.

B2: Z11711 (designed binder)
chain: AQHDEALEVDAKYAKEEAEAWREIHLLPNLTVNQMAAFISKLFDDPSQSSELLSEAKKLNDSQAPKVDYVLAEAKVLANRELDKYGVSDYYKNLINNAKTVEGVKALIDEILAALPYVPG
notes: as for B1
The molecule B2 came in with a 50% effective concentration (EC50) of 0.35 nM.

B3: Z11791 (designed binder)
chain: AQHDEALEVDAKYAKEERDAWHEIHLLPNLTVSQMAAFISKLFDDPSQSSELLSEAKKLNDSQAPKVDYVLAEAKVLANRELDKYGVSDYYKNLINNAKTVEGVKALIDEILAALPYVPG
notes: as for B1
The molecule B3 came in with an EC50 of 0.34 nM.

B4: Z11644 (designed binder)
chain: AQHDEALEVDAKYAKEERQAWFEIHALPNLTVDQMAAFISKLFDDPSQSSELLSEAKKLNDSQAPKVDYVLAEAKVLANRELDKYGVSDYYKNLINNAKTVEGVKALIDEILAALPYVPG
notes: as for B1
In the case of B4, the EC50 came to 0.24 nM.

B5: Z11805 (designed binder)
chain: AQHDEALEVDAKYAKEEARAWFEIHALPNLTVQQVAAFISKLFDDPSQSSELLSEAKKLNDSQAPKVDYVLAEAKVLANRELDKYGVSDYYKNLINNAKTVEGVKALIDEILAALPYVPG
notes: as for B1
In turn, B5 yielded an EC50 of 0.34 nM.

B6: Z11217 (designed binder)
chain: AQHDEALEVDAKYAKEEREAWYEIHLLPNLTVEQMAAFISKLFDDPSQSSELLSEAKKLNDSQAPKVDYVLAEAKVLANRELDKYGVSDYYKNLINNAKTVEGVKALIDEILAALPYVPG
notes: as for B1
In turn, B6 came in with an EC50 of 0.13 nM.

B7: Z11321 (designed binder)
chain: AQHDEALEVDAKYAKEERVAWYEIHLLPNLTITQMAAFISKLFDDPSQSSELLSEAKKLNDSQAPKVDYVLAEAKVLANRELDKYGVSDYYKNLINNAKTVEGVKALIDEILAALPYVPG
notes: as for B1
For the molecule B7, the EC50 amounted to 0.14 nM.

B8: Z11642 (designed binder)
chain: AQHDEALEVDAKYAKEERQAWYEIHTLPNLTAEQMAAFISKLFDDPSQSSELLSEAKKLNDSQAPKVDYVLAEAKVLANRELDKYGVSDYYKNLINNAKTVEGVKALIDEILAALPYVPG
notes: as for B1
For B8, the midpoint of the response, the EC50, lay at 0.23 nM.

B9: Z11784 (designed binder)
chain: AQHDEALEVDAKYAKEEREAWWEIHKLPNLTVNQMAAFISKLFDDPSQSSELLSEAKKLNDSQAPKVDYVLAEAKVLANRELDKYGVSDYYKNLINNAKTVEGVKALIDEILAALPYVPG
notes: as for B1
Molecule B9 yielded an EC50 of 0.27 nM.

B10: Z11552 (designed binder)
chain: AQHDEALEVDAKYAKEERAAWYEIHLLPNLTVDQMAAFISKLFDDPSQSSELLSEAKKLNDSQAPKVDYVLAEAKVLANRELDKYGVSDYYKNLINNAKTVEGVKALIDEILAALPYVPG
notes: as for B1
The molecule B10 returned a concentration for a half-maximal effect (EC50) of 1.2 nM.

B11: Z11222 (designed binder)
chain: AQHDEALEVDAKYAKEERDAWYEIHLLPNLTIDQMAAFISKLFDDPSQSSELLSEAKKLNDSQAPKVDYVLAEAKVLANRELDKYGVSDYYKNLINNAKTVEGVKALIDEILAALPYVPG
notes: as for B1
Turning to B11, the EC50 amounted to 0.14 nM.

B12: Z11803 (designed binder)
chain: AQHDEALEVDAKYAKEEHHAWTEIHLLPNLTVSQMAAFIQKLFDDPSQSSELLSEAKKLNDSQAPKVDYVLAEAKVLANRELDKYGVSDYYKNLINNAKTVEGVKALIDEILAALPYVPG
notes: as for B1
For the molecule B12, the concentration for a half-maximal effect (EC50) was determined as 0.28 nM.

B13: Z11781 (designed binder)
chain: AQHDEALEVDAKYAKEEREAWYEIHLLPNLTVRQMAAFISKLFDDPSQSSELLSEAKKLNDSQAPKVDYVLAEAKVLANRELDKYGVSDYYKNLINNAKTVEGVKALIDEILAALPYVPG
notes: as for B1
Molecule B13 displayed an EC50 of 0.29 nM.

B14: Z11802 (designed binder)
chain: AQHDEALEVDAKYAKEERKAWFEIHKLPNLTVEQMAAFISKLFDDPSQSSELLSEAKKLNDSQAPKVDYVLAEAKVLANRELDKYGVSDYYKNLINNAKTVEGVKALIDEILAALPYVPG
notes: as for B1
In the case of B14, it took 0.26 nM to reach a half-maximal effect (EC50).

B15: Z11723 (designed binder)
chain: AQHDEALEVDAKYAKEERDAWYEIHLLPNLTVQQMAAFISKLFDDPSQSSELLSEAKKLNDSQAPKVDYVLAEAKVLANRELDKYGVSDYYKNLINNAKTVEGVKALIDEILAALPYVPG
notes: as for B1
B15 showed an EC50 of 0.25 nM.

B16: Z11351 (designed binder)
chain: AQHDEALEVDAKYAKEEASAWFEIHTLPNLTVQQMAAFISKLFDDPSQSSELLSEAKKLNDSQAPKVDYVLAEAKVLANRELDKYGVSDYYKNLINNAKTVEGVKALIDEILAALPYVPG
notes: as for B1
With B16, the EC50 was determined as 0.17 nM.

B17: Z11277 (designed binder)
chain: AQHDEALEVDAKYAKEEAKAWFEIHALPNLTVEQMAAFISKLFDDPSQSSELLSEAKKLNDSQAPKVDYVLAEAKVLANRELDKYGVSDYYKNLINNAKTVEGVKALIDEILAALPYVPG
notes: as for B1
Molecule B17 showed a concentration giving a half-maximal response (EC50) of 0.12 nM.

B18: Z11329 (designed binder)
chain: AQHDEALEVDAKYAKEERQAWYEIHLLPNLTVQQMAAFISKLFDDPSQSSELLSEAKKLNDSQAPKVDYVLAEAKVLANRELDKYGVSDYYKNLINNAKTVEGVKALIDEILAALPYVPG
notes: as for B1
Turning to B18, the midpoint of the response, the EC50, lay at 0.14 nM.

B19: Z11674 (designed binder)
chain: AQHDEALEVDAKYAKEEARAWREIHLLPNLTVQQMAAFISKLFDDPSQSSELLSEAKKLNDSQAPKVDYVLAEAKVLANRELDKYGVSDYYKNLINNAKTVEGVKALIDEILAALPYVPG
notes: as for B1
Molecule B19 yielded an EC50 of 0.26 nM.

B20: Z11789 (designed binder)
chain: AQHDEALEVDAKYAKEEAEAWREIHLLPNLTVHQMAAFISKLFDDPSQSSELLSEAKKLNDSQAPKVDYVLAEAKVLANRELDKYGVSDYYKNLINNAKTVEGVKALIDEILAALPYVPG
notes: as for B1
In turn, B20 registered an EC50 of 0.24 nM.

B21: Z11384 (designed binder)
chain: AQHDEALEVDAKYAKEERKAWYEIHLLPNLTVNQMAAFISKLFDDPSQSSELLSEAKKLNDSQAPKVDYVLAEAKVLANRELDKYGVSDYYKNLINNAKTVEGVKALIDEILAALPYVPG
notes: as for B1
B21 registered an EC50 of 0.15 nM.

B22: Z11214 (designed binder)
chain: AQHDEALEVDAKYAKEERTAWFEIHTLPNLTVEQMAAFISKLFDDPSQSSELLSEAKKLNDSQAPKVDYVLAEAKVLANRELDKYGVSDYYKNLINNAKTVEGVKALIDEILAALPYVPG
notes: as for B1
B22: the response was half-maximal at 0.13 nM (EC50).

B23: Z11278 (designed binder)
chain: AQHDEALEVDAKYAKEERTAWYEIHILPNLTVSQMAAFISKLFDDPSQSSELLSEAKKLNDSQAPKVDYVLAEAKVLANRELDKYGVSDYYKNLINNAKTVEGVKALIDEILAALPYVPG
notes: as for B1
B23 registered an EC50 of 0.15 nM.

B24: Z11472 (designed binder)
chain: AQHDEALEVDAKYAKEEARAWHEIHILPNLTVSQIAAFISKLFDDPSQSSELLSEAKKLNDSQAPKVDYVLAEAKVLANRELDKYGVSDYYKNLINNAKTVEGVKALIDEILAALPYVPG
notes: as for B1
In turn, B24 yielded an EC50 of 0.18 nM.

B25: Z11794 (designed binder)
chain: AQHDEALEVDAKYAKEERRAWYEIHTLPNLTVQQMAAFISKLFDDPSQSSELLSEAKKLNDSQAPKVDYVLAEAKVLANRELDKYGVSDYYKNLINNAKTVEGVKALIDEILAALPYVPG
notes: as for B1
Regarding B25, the EC50 was 0.22 nM.

B26: Z11300 (designed binder)
chain: AQHDEALEVDAKYAKEERDAWYEIHLLPNLTVEQIAAFISKLFDDPSQSSELLSEAKKLNDSQAPKVDYVLAEAKVLANRELDKYGVSDYYKNLINNAKTVEGVKALIDEILAALPYVPG
notes: as for B1
The molecule B26 displayed an EC50 of 0.19 nM.

B27: Z11698 (designed binder)
chain: AQHDEALEVDAKYAKEEAKAWREIHLLPNLTVTQMAAFISKLFDDPSQSSELLSEAKKLNDSQAPKVDYVLAEAKVLANRELDKYGVSDYYKNLINNAKTVEGVKALIDEILAALPYVPG
notes: as for B1
In turn, B27 came in with an EC50 of 0.2 nM.

B28: Z11213 (designed binder)
chain: AQHDEALEVDAKYAKEEREAWYEIHVLPNLTVSQIAAFISKLFDDPSQSSELLSEAKKLNDSQAPKVDYVLAEAKVLANRELDKYGVSDYYKNLINNAKTVEGVKALIDEILAALPYVPG
notes: as for B1
Consider B28, for which the EC50 turned out to be 0.15 nM.

B29: Z11788 (designed binder)
chain: AQHDEALEVDAKYAKEERRAWYEIHLLPNLTIQQMAAFISKLFDDPSQSSELLSEAKKLNDSQAPKVDYVLAEAKVLANRELDKYGVSDYYKNLINNAKTVEGVKALIDEILAALPYVPG
notes: as for B1
B29 gave an EC50 of 0.25 nM.

B30: Z11251 (designed binder)
chain: AQHDEALEVDAKYAKEERKAWFEIHALPNLTVDQMAAFISKLFDDPSQSSELLSEAKKLNDSQAPKVDYVLAEAKVLANRELDKYGVSDYYKNLINNAKTVEGVKALIDEILAALPYVPG
notes: as for B1
In turn, B30 had an EC50 of 0.14 nM.

B31: Z11283 (designed binder)
chain: AQHDEALEVDAKYAKEEQQAWTEIHSLPNLTVDQMAAFISKLFDDPSQSSELLSEAKKLNDSQAPKVDYVLAEAKVLANRELDKYGVSDYYKNLINNAKTVEGVKALIDEILAALPYVPG
notes: as for B1
B31 yielded an EC50 of 0.18 nM.

B32: Z11380 (designed binder)
chain: AQHDEALEVDAKYAKEEREAWYEIHVLPNLTVDQMAAFISKLFDDPSQSSELLSEAKKLNDSQAPKVDYVLAEAKVLANRELDKYGVSDYYKNLINNAKTVEGVKALIDEILAALPYVPG
notes: as for B1
On to B32, for which the response was half-maximal at 0.17 nM (EC50).

B33: Z11215 (designed binder)
chain: AQHDEALEVDAKYAKEEAEAWWEIHLLPNLTVSQMAAFISKLFDDPSQSSELLSEAKKLNDSQAPKVDYVLAEAKVLANRELDKYGVSDYYKNLINNAKTVEGVKALIDEILAALPYVPG
notes: as for B1
Turning to B33, the EC50 was 0.14 nM.

The values above are taken from US20170129926A1 (ABCLON, published 2017).
